In patent US6878804B1 (University of Zurich, priority 1999, dated 2005):
Some peptides are written in HELM: one residue between dots, names in brackets for other building blocks, links after the first $.

Experiment: general procedure: Fmoc solid-phase peptide synthesis; 2-chlorotrityl chloride resin (Polyphor, 1.25 mmol/g); HBTU/HOBt/DIEA; cyclisation HATU/HOAt/DIPEA
Settings: whole synthesis, analytical HPLC (Nucleosil 100-5 Protect 1, acetonitrile/water 0.1% TFA)

Substance	crude HPLC purity
PEPTIDE1{P.A.I.V.R.K.K.P.A.[dP]}$PEPTIDE1,PEPTIDE1,1:R1-10:R2$$$V2.0	95%
PEPTIDE1{P.E.A.V.R.K.K.A.I.[dP]}$PEPTIDE1,PEPTIDE1,1:R1-10:R2$$$V2.0	90%
